Source: the supplement of paper PMC12823440, “Inhibitors supercharge kinase turnover through native proteolytic circuits” (Nature, 2025)
Where a name gives a salt, the structure may show the parent alone. The list shows a part of the results. The calls rarely recur for the same compound in another form.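 In K562 cells expressing nanoluciferase-fused kinases, luminescence was recorded at 4 h intervals between 2 and 18 h, normalized as percent of control with DMSO at 100% and a positive control at 0%. A significant (2 sigma) signal drop marks a time point as decreased. The authors' rule for a hit is not shown and takes in more than the number of time points.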

Amino acid sequences for entries named in this document (tags omitted). A change or cut given only in a name is not applied to a line headed by its entry.
UniProt P53667: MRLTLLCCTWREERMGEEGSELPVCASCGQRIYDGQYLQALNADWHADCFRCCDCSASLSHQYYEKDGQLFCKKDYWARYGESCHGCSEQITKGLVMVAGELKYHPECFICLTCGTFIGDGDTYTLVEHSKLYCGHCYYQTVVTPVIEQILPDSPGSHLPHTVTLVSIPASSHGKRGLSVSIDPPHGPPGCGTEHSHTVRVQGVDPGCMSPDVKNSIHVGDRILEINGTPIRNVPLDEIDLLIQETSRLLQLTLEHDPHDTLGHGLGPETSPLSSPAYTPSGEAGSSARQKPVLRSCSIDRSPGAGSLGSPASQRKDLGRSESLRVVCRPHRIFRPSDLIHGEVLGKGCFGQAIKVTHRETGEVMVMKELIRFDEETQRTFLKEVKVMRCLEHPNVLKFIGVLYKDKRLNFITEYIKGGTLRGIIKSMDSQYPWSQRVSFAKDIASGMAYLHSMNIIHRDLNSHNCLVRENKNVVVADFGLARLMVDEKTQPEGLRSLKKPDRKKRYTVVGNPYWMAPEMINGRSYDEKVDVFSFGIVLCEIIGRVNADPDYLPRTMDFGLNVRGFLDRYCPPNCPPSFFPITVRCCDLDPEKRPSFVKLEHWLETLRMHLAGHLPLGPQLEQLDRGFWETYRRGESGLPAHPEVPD
UniProt P53671: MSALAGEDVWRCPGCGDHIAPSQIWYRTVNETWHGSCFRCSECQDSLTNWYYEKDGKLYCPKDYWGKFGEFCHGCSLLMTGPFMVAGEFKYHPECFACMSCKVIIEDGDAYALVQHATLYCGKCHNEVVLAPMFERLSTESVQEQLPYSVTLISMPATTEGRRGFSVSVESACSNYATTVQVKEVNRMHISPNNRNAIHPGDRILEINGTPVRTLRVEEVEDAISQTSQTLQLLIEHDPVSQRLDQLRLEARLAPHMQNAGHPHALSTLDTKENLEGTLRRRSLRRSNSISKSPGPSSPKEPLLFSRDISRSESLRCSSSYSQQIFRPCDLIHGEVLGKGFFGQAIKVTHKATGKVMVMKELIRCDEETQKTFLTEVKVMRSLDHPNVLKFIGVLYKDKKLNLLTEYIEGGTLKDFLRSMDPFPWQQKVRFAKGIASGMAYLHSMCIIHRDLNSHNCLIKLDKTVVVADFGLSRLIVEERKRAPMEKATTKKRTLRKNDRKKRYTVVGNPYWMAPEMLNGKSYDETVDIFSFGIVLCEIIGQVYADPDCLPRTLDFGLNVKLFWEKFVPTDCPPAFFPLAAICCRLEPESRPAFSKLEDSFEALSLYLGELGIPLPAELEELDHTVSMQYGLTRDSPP
UniProt Q8IWU2: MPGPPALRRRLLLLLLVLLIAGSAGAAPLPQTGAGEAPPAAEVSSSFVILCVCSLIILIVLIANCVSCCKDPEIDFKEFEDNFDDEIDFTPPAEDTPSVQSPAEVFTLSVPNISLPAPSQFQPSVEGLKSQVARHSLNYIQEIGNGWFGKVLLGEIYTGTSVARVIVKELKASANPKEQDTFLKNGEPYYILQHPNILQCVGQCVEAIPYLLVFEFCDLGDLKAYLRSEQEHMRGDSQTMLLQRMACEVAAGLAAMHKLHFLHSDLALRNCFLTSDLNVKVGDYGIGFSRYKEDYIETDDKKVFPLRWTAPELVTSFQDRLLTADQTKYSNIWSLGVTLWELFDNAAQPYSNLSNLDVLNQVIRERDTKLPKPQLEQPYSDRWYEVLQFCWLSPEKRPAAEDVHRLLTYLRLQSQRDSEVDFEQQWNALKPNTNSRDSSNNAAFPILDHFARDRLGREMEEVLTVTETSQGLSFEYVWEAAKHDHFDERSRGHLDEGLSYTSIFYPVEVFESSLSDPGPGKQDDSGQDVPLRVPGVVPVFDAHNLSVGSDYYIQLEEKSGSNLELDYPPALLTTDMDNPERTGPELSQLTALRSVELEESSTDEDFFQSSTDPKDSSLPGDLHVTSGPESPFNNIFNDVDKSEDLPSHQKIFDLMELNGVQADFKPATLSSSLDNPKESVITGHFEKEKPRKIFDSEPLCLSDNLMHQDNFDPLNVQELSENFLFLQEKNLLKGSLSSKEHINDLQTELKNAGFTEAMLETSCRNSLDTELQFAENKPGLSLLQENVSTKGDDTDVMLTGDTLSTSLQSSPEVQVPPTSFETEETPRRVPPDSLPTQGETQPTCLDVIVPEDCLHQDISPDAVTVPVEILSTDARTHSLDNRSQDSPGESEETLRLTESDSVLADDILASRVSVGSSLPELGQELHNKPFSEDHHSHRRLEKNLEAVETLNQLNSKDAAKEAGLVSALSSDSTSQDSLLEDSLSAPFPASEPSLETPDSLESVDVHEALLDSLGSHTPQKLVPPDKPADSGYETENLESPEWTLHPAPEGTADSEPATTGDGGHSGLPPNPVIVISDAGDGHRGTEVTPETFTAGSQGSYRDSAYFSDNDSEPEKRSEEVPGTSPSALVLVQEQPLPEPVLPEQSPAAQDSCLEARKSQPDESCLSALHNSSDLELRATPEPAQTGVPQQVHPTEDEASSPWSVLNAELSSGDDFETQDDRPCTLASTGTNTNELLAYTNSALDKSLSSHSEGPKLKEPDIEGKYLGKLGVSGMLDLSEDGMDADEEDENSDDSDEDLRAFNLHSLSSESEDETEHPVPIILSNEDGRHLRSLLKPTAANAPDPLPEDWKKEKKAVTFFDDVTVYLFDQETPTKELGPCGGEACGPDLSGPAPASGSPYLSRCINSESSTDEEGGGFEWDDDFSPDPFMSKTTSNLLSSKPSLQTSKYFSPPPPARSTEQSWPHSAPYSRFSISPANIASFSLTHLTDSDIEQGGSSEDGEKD
UniProt P07948: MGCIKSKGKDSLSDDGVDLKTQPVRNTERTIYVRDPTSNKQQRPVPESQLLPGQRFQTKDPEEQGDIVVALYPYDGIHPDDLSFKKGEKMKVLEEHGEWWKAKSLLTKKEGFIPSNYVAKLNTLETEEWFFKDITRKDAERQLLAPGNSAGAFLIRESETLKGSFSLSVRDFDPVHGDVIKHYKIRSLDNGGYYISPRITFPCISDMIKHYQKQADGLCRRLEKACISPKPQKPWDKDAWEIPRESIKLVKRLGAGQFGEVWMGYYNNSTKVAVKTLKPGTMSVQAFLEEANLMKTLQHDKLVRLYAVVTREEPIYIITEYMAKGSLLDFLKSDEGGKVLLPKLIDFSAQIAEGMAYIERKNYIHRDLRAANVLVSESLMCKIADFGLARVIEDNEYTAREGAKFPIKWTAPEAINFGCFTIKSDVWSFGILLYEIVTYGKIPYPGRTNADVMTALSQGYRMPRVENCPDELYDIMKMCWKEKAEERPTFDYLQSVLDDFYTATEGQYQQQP
UniProt P28482, whole entry: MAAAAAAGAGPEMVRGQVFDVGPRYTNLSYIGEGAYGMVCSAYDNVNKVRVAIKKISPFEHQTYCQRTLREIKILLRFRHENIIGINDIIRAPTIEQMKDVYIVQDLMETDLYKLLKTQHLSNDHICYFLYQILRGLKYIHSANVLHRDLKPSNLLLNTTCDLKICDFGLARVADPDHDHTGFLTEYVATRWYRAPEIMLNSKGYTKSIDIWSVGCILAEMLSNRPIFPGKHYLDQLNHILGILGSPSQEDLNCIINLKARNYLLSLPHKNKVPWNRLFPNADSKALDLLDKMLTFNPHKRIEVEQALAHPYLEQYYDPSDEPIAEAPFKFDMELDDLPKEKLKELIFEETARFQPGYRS
UniProt P49137, whole entry, looked up: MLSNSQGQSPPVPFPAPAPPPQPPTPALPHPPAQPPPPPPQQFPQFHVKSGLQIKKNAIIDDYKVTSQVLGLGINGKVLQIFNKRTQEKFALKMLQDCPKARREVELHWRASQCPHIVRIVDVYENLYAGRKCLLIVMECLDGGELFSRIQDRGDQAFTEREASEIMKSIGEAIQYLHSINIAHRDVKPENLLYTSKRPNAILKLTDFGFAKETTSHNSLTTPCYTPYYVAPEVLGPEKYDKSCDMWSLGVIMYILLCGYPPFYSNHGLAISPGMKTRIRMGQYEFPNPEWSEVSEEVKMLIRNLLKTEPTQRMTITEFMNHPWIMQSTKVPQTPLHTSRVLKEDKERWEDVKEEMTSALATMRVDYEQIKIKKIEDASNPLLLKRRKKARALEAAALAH
UniProt Q9BUB5: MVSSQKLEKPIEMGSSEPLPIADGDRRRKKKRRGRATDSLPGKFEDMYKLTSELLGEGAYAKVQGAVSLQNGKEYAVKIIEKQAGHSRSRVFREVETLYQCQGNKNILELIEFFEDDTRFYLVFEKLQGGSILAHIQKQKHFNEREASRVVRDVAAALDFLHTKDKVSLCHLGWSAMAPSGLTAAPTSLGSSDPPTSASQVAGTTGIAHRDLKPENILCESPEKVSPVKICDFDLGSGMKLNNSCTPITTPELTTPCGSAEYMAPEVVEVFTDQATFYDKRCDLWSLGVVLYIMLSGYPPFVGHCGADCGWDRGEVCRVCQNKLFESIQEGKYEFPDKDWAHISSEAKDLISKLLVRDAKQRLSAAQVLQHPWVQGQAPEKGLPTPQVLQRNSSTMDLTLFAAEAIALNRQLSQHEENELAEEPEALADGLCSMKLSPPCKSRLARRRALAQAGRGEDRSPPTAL
UniProt Q16620, whole entry, looked up: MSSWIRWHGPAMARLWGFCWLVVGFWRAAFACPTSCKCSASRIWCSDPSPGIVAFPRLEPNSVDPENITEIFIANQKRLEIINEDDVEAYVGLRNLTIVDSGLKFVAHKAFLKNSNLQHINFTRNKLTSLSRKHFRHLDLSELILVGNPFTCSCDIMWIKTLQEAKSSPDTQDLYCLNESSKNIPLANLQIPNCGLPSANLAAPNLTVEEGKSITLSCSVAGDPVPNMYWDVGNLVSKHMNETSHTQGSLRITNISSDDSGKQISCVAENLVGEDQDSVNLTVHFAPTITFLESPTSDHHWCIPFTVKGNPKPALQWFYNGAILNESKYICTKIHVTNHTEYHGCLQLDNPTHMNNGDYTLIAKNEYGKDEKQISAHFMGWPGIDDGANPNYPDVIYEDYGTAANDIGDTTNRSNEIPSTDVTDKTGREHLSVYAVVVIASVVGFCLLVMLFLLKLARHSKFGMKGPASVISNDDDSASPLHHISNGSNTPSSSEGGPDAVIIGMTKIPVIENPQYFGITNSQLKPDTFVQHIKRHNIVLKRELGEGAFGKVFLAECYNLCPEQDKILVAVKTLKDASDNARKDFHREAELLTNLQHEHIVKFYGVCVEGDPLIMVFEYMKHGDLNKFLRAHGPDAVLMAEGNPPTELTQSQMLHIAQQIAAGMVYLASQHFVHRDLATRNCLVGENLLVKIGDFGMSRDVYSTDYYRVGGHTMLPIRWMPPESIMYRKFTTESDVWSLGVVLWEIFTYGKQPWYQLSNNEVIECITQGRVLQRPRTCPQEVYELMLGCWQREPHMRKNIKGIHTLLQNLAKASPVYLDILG
UniProt O96013: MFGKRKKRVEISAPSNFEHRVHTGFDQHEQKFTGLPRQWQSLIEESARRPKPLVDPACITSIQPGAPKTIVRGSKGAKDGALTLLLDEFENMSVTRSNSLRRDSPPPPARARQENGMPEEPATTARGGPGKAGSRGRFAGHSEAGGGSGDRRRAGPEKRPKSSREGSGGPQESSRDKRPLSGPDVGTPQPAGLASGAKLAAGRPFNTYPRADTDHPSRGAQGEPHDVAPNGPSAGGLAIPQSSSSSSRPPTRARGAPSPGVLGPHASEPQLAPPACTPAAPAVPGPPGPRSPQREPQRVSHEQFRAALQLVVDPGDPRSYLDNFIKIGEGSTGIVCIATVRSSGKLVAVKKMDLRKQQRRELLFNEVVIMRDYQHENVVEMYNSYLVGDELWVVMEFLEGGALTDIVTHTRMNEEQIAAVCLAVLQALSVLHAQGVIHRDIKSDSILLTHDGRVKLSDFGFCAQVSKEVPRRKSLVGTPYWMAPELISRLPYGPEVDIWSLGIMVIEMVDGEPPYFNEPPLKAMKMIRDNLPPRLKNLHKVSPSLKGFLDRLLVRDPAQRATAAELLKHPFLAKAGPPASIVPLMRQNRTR
UniProt Q15118, whole entry, looked up: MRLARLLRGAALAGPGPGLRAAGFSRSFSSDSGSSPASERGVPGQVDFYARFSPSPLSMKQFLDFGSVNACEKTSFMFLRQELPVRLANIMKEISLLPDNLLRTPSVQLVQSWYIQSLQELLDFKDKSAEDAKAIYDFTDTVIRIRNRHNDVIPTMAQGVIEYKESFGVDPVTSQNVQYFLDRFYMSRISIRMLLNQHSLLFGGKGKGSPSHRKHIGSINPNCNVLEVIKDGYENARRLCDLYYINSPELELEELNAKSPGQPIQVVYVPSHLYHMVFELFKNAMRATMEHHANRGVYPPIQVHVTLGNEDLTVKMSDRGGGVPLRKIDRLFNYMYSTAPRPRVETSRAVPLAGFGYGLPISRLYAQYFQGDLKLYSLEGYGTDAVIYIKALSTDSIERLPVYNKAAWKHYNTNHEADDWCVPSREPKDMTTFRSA

Key:
Test in all cases: kinase-Nluc reporter destabilization hit call (1 = scored as downregulated) (binary); higher = compound decreases kinase abundance
Details in all cases: K562; 2-18 h
[1] = target: IRAK3 (UniProt Q9Y616)
[2] = target: LCK (UniProt P06239)
[3] = target: LIMK1 (UniProt P53667)
[4] = target: LIMK2 (UniProt P53671)
[5] = target: LMTK2 (UniProt Q8IWU2)
[6] = target: LYN (UniProt P07948)
[7] = target: MAP2K1 (UniProt Q02750)
[8] = target: MAP2K2 (UniProt P36507)
[9] = target: MAP4K2 (UniProt Q12851)
[10] = target: MAPK1 (UniProt P28482)
[11] = target: MAPK4 (UniProt P31152)
[12] = target: MAPKAPK2 (UniProt P49137)
[13] = target: MKNK1 (UniProt Q9BUB5)
[14] = target: NTRK2 (UniProt Q16620)
[15] = target: NTRK3 (UniProt Q16288)
[16] = target: PAK4 (UniProt O96013)
[17] = target: PBK (UniProt Q96KB5)
[18] = target: PDGFRB (UniProt P09619)
[19] = target: PDK1 (UniProt Q15118)
[20] = target: JAK1 (UniProt P23458)

Measured: kinase-Nluc reporter destabilization hit call

CCCS(=O)(=O)N[C@H]1C[C@@H](N(C)c2ncnc3[nH]ccc23)C1 [Abrocitinib] (10 µM)
inactive: [1] 0 | [2] 0 | [3] 0 | [4] 0 | [5] 0 | [6] 0 | [7] 0 | [8] 0 | [9] 0 | [10] 0 | [11] 0 | [12] 0 | [13] 0 | [14] 0 | [15] 0 | [16] 0 | [17] 0 | [18] 0 | [19] 0

CC(ONC(=O)c1cc(C(F)(F)F)cc(C(F)(F)F)c1)C(=O)Nc1ccc(Cl)cc1 (stereo not drawn) (2.5 µM)
inactive: [1] 0 | [20] 0 | [2] 0 | [3] 0 | [4] 0 | [5] 0 | [6] 0 | [7] 0 | [8] 0 | [9] 0 | [10] 0 | [11] 0 | [12] 0 | [13] 0 | [15] 0 | [16] 0 | [17] 0 | [18] 0 | [19] 0

C=CC(=O)Nc1cc(Nc2nccc(-c3cn(C)c4ccccc34)n2)c(OCC(F)(F)F)nc1N(C)CCNC [AST5902  (trimesylate)] (2.5 µM)
inactive: [1] 0 | [20] 0 | [2] 0 | [3] 0 | [4] 0 | [5] 0 | [6] 0 | [7] 0 | [8] 0 | [9] 0 | [10] 0 | [11] 0 | [12] 0 | [13] 0 | [15] 0 | [16] 0 | [17] 0 | [18] 0 | [19] 0

Nc1ccc(Sc2nc3ccccc3s2)c(Cl)c1 [KRAS inhibitor-9] (10 µM)
inactive: [1] 0 | [20] 0 | [2] 0 | [3] 0 | [4] 0 | [5] 0 | [6] 0 | [7] 0 | [8] 0 | [9] 0 | [10] 0 | [11] 0 | [12] 0 | [13] 0 | [15] 0 | [16] 0 | [17] 0 | [18] 0 | [19] 0

CN(C)CCn1cc2cc(NC(=O)c3cccc(C(F)(F)F)n3)c(C(C)(C)O)cc2n1 (10 µM)
inactive: [1] 0 | [20] 0 | [2] 0 | [3] 0 | [4] 0 | [5] 0 | [6] 0 | [7] 0 | [8] 0 | [9] 0 | [10] 0 | [11] 0 | [12] 0 | [13] 0 | [15] 0 | [16] 0 | [17] 0 | [18] 0 | [19] 0

C=CC(=O)Nc1cccc(Oc2nc(Nc3ccc(N4CCN(C)CC4)cc3OC)ncc2Cl)c1 (10 µM)
inactive: [1] 0 | [20] 0 | [2] 0 | [3] 0 | [4] 0 | [5] 0 | [6] 0 | [7] 0 | [8] 0 | [9] 0 | [10] 0 | [11] 0 | [12] 0 | [13] 0 | [15] 0 | [16] 0 | [17] 0 | [18] 0 | [19] 0

CNCc1ccccc1Sc1cccc2ccccc12 [IFN alpha-IFNAR-IN-1 (hydrochloride)] (10 µM)
inactive: [1] 0 | [20] 0 | [2] 0 | [3] 0 | [4] 0 | [5] 0 | [6] 0 | [7] 0 | [8] 0 | [9] 0 | [10] 0 | [11] 0 | [12] 0 | [13] 0 | [15] 0 | [16] 0 | [17] 0 | [18] 0 | [19] 0

CN(C)CCOc1cc(-c2cn[nH]c2)ccc1NC(=O)C1COc2ccccc2O1 (stereo not drawn) (10 µM)
inactive: [1] 0 | [20] 0 | [2] 0 | [3] 0 | [4] 0 | [5] 0 | [6] 0 | [7] 0 | [8] 0 | [9] 0 | [10] 0 | [11] 0 | [12] 0 | [13] 0 | [15] 0 | [16] 0 | [17] 0 | [18] 0 | [19] 0

CCC[C@H](C)Oc1nc(N)c2[nH]c(=O)n(CCCCCN3CCCCC3)c2n1 (10 µM)
inactive: [1] 0 | [20] 0 | [2] 0 | [3] 0 | [4] 0 | [5] 0 | [6] 0 | [7] 0 | [8] 0 | [9] 0 | [10] 0 | [11] 0 | [12] 0 | [13] 0 | [15] 0 | [16] 0 | [17] 0 | [18] 0 | [19] 0

C[C@@H]1COC(Nc2ccc3ncnc(Nc4ccc(OCc5nccs5)c(Cl)c4)c3c2)=N1 [Varlitinib] (10 µM)
inactive: [1] 0 | [2] 0 | [3] 0 | [4] 0 | [5] 0 | [6] 0 | [7] 0 | [8] 0 | [9] 0 | [10] 0 | [11] 0 | [12] 0 | [13] 0 | [14] 0 | [15] 0 | [16] 0 | [17] 0 | [18] 0 | [19] 0

CC(C)(CCCCCC(O)CCCCCC(C)(C)C(=O)O)C(=O)O [Bempedoic acid] (10 µM)
inactive: [1] 0 | [20] 0 | [2] 0 | [3] 0 | [4] 0 | [5] 0 | [6] 0 | [7] 0 | [8] 0 | [9] 0 | [10] 0 | [11] 0 | [12] 0 | [13] 0 | [15] 0 | [16] 0 | [17] 0 | [18] 0 | [19] 0

N#Cc1cc(-c2ccnc(Nc3ccc(N4CCOCC4)cc3)n2)ccc1OC1CCOCC1 (10 µM)
inactive: [1] 0 | [20] 0 | [2] 0 | [3] 0 | [4] 0 | [5] 0 | [6] 0 | [7] 0 | [8] 0 | [9] 0 | [10] 0 | [11] 0 | [12] 0 | [13] 0 | [15] 0 | [16] 0 | [17] 0 | [18] 0 | [19] 0

2 entries picked at random from the list so far, as already listed:
CCC[C@H](C)Oc1nc(N)c2[nH]c(=O)n(CCCCCN3CCCCC3)c2n1 (10 µM)
inactive: [1] 0 | [20] 0 | [2] 0 | [3] 0 | [4] 0 | [5] 0 | [6] 0 | [7] 0 | [8] 0 | [9] 0 | [10] 0 | [11] 0 | [12] 0 | [13] 0 | [15] 0 | [16] 0 | [17] 0 | [18] 0 | [19] 0

C=CC(=O)Nc1cccc(Oc2nc(Nc3ccc(N4CCN(C)CC4)cc3OC)ncc2Cl)c1 (10 µM)
inactive: [1] 0 | [20] 0 | [2] 0 | [3] 0 | [4] 0 | [5] 0 | [6] 0 | [7] 0 | [8] 0 | [9] 0 | [10] 0 | [11] 0 | [12] 0 | [13] 0 | [15] 0 | [16] 0 | [17] 0 | [18] 0 | [19] 0

The results go on:

C=CC(=O)N1CCC(c2ccc(C(N)=O)c(-c3ccc(Oc4ccccc4)cc3)n2)CC1 [Orelabrutinib] (2.5 µM)
inactive: [1] 0 | [20] 0 | [2] 0 | [3] 0 | [4] 0 | [5] 0 | [6] 0 | [7] 0 | [8] 0 | [9] 0 | [10] 0 | [11] 0 | [12] 0 | [13] 0 | [15] 0 | [16] 0 | [17] 0 | [18] 0 | [19] 0

COc1cccc(-c2cc(=O)c3ccccc3o2)c1N (10 µM)
inactive: [1] 0 | [20] 0 | [2] 0 | [3] 0 | [4] 0 | [5] 0 | [6] 0 | [7] 0 | [8] 0 | [9] 0 | [10] 0 | [11] 0 | [12] 0 | [13] 0 | [15] 0 | [16] 0 | [17] 0 | [18] 0 | [19] 0

O=C1NC(=O)C(Cc2c[nH]c3c(Cl)cccc23)N1 (stereo not drawn) [Necroptosis-IN-1] (10 µM)
inactive: [1] 0 | [20] 0 | [2] 0 | [3] 0 | [4] 0 | [5] 0 | [6] 0 | [7] 0 | [8] 0 | [9] 0 | [10] 0 | [11] 0 | [12] 0 | [13] 0 | [15] 0 | [16] 0 | [17] 0 | [18] 0 | [19] 0

Cc1cnc(Cl)nc1-c1ccc(N(Cc2ccc(CNC(=O)C(F)F)cc2)C(=O)c2ccc(O)cc2O)cc1 (10 µM)
inactive: [1] 0 | [20] 0 | [2] 0 | [3] 0 | [4] 0 | [5] 0 | [6] 0 | [7] 0 | [8] 0 | [9] 0 | [10] 0 | [11] 0 | [12] 0 | [13] 0 | [15] 0 | [16] 0 | [17] 0 | [18] 0 | [19] 0

O=C(NC[C@H](O)CO)c1ccncc1Nc1ccc(I)cc1F [Pimasertib] (10 µM)
inactive: [1] 0 | [20] 0 | [2] 0 | [3] 0 | [4] 0 | [5] 0 | [6] 0 | [8] 0 | [9] 0 | [10] 0 | [11] 0 | [12] 0 | [13] 0 | [14] 0 | [15] 0 | [16] 0 | [17] 0 | [18] 0 | [19] 0
